Counter-ions that a name gives are not always drawn. Some of the results follow. Single values are uncertain here, since repeats match poorly.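 ReNCell VM, a human fetal ventral-midbrain neural progenitor line, was differentiated without mitogens. Blinded raters scored images stained for doublecortin (early neurons) or tyrosine hydroxylase (dopaminergic neurons) against untreated wells (0 = no change). Scores were averaged across repeats and both raters, and compounds averaging 2 or more were selected as hits for retesting.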

The first assay deals with ReNCell VM. Briefly: neuronal differentiation score (DCX+ cell fraction vs untreated, manual image score) (score (-3 to 3)); higher = more neuronal differentiation. To be noted: library: Prestwick; 2 uM; 2 weeks.
Turning to `CC(=O)[C@H]1CC[C@H]2[C@@H]3CCC4=CC(=O)CC[C@]4(C)[C@H]3CC[C@]12C` [Progesterone], the neuronal differentiation score is inactive: 0.

Consider `CCN1CCC[C@H]1CNC(=O)c1c(O)c(Cl)cc(Cl)c1OC` [Raclopride], for which the neuronal differentiation score is inactive: 0.

Regarding `COc1c(O[C@@H]2O[C@H](CO)[C@@H](O)[C@H](O)[C@H]2O)cc2c(c1OC)-c1ccc(SC)c(=O)cc1[C@@H](NC(C)=O)CC2` [Thiocolchicoside], the neuronal differentiation score was inactive: 0.

Staying with this assay, now noted: library: Tocriscreen; 2 uM; 2 weeks.
Regarding `O=C(O)c1cc(=O)c2ccccc2[nH]1` [Kynurenic acid], the neuronal differentiation score is inactive: 0.

Take `CN1CC(=O)N=C1NC(=O)Nc1cccc(Cl)c1` [Fenobam]: the neuronal differentiation score is inactive: 0.

As to `O=C(O)c1cc(=O)c2c(Cl)cc(Cl)cc2[nH]1` [5,7-Dichlorokynurenic acid], the neuronal differentiation score is inactive: 0.

On to `COc1cc2c(cc1C(F)(F)F)N(C(=O)Nc1cc(F)cc(-c3cccnc3)c1)CC2`, for which the neuronal differentiation score was inactive: -1.

With `COc1ccc(Cl)cc1NC(=O)Nc1cc(C)nc2ccccc12`, the neuronal differentiation score was inactive: 0.

Consider `CC(C(=O)O)c1ccc(-c2ccccc2)c(F)c1` (stereo not given) [Flurbiprofen], for which the neuronal differentiation score was inactive: 0.

For `O=c1c(O)c(-c2ccc(O)cc2)oc2cc(O)cc(O)c12` [Kaempferol], the neuronal differentiation score is inactive: 0.

Regarding `CC1=NN(c2ccccc2)C(=O)C1`, the neuronal differentiation score is inactive: 0.

With `O=C(O)/C=C/c1ccc(Cn2ccnc2)cc1` [Ozagrel hydrochloride], the neuronal differentiation score was inactive: 0.

With `O=C(O)c1cccnc1C(=O)O` [Quinolinic acid], the neuronal differentiation score was inactive: 0.

Regarding `CCOc1ccccc1OC(c1ccccc1)C1CNCCO1` (stereo not given) [Reboxetine mesylate], the neuronal differentiation score was inactive: 0.

As for `Oc1cc2c(cc1O)CN(C(=S)NCCc1ccc(Cl)cc1)CCC2` [Capsazepine], the neuronal differentiation score was inactive: 0.

`CC(=O)NNC(=O)N1Cc2ccccc2Oc2ccc(Cl)cc21`: the neuronal differentiation score is inactive: 0.

As for `CCCCCCCCCCCCCCCC(=O)NCCO` [Palmitoylethanolamide], the neuronal differentiation score is inactive: 0.

Turning to `O=C1c2ccccc2S(=O)(=O)N1CCCCN1CCN(c2ncccn2)CC1` [Ipsapirone], the neuronal differentiation score was inactive: 0.

On to `O=C1Cc2c([nH]c3ccc(Br)cc23)-c2ccccc2N1` [Kenpaullone], for which the neuronal differentiation score was active: 3.

As for `Cc1ccc([N+](=O)[O-])cc1S(=O)(=O)N(C)C`, the neuronal differentiation score is inactive: 0.

For the compound `CN1CC2c3ccccc3Oc3ccc(Cl)cc3C2C1` (stereo not given) [Asenapine maleate], the neuronal differentiation score was inactive: 0.

On to `CC[C@H](C)C(=O)O[C@H]1C[C@@H](C)C=C2C=C[C@H](C)[C@H](CC[C@@H]3C[C@@H](O)CC(=O)O3)[C@H]21` [Lovastatin], for which the neuronal differentiation score is inactive: 0.

On to `CCN1CCC[C@H]1CNC(=O)c1c(O)c(Cl)cc(Cl)c1OC` [Raclopride], for which the neuronal differentiation score was inactive: 0.

For `CC(=Cc1ccc(C(=O)O)cc1)c1ccc2c(c1)C(C)(C)CCC2(C)C`, the neuronal differentiation score was inactive: 0.

As for `CC(C)(C(=O)O)c1ccc(C(O)CCCN2CCC(C(O)(c3ccccc3)c3ccccc3)CC2)cc1` (stereo not given) [Fexofenadine hydrochloride], the neuronal differentiation score is inactive: 0.

For the origin of these results see the supplement of paper PMC4635364.
